PubChem BioAssay AID1347076 (National Center for Advancing Translational Sciences (NCATS), 2019)
In all, about 400,000 compounds went through this assay and about 13,000 (3.2%) were called active. Inconclusive results, whose numbers are uncertain, are shown with a selection of clear calls. The call rests on the fitted dose curve; in most records, active means well fitted cell-killing curve with a large enough effect; inconclusive means small, poorly fitted or top-dose-only effect, or effect the other way; inactive means flat fitted curve, though single readings scatter. A potency beside an inconclusive call is a rough fit, not a confirmed value.

Assay: qHTS assay for MDR1-selective chemotherapeutics: Primary screen using the drug-selected MDR subline cells KB-V1; further: nearly all actives have a fitted effect of over 60% in size
Conditions: KB-V1 MDR cells viability, CellTiter-Glo, 72 h; series mostly up to 46.1 µM
In short: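 Readout: CellTiter-Glo luminescence, 10 min after addition. Cells: KB-V1 MDR subline, 72 h at 37 degrees C with compound. Analysis: corrected, normalized data fitted to concentration-effect curves.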
Potency means the concentration at half of the fitted maximal effect.

SMILES	Potency
COc1ccc(/C=C2\N=C(C(C)(C)C)OC2=O)c(OC)c1	inactive
COc1cc(C(=O)OCc2ccc(C)cc2)cc(NC(=O)c2cccs2)c1OC	inconclusive: 5.17 µM [cytotoxic, partial curve, poor fit]
O=c1cc(CN2CCN(Cc3ccccc3)CC2)c2ccc(O)c(O)c2o1	inconclusive: 29.1 µM [cytotoxic, single point]
Cc1nc(N)ncc1-c1ccc2c(c1)OCO2	active: 11.6 µM
Cc1ccc(C(C(=O)NC2CCCCC2)N(C(=O)Cc2c[nH]c3ccccc23)c2ccccc2C)o1 (stereo not drawn)	inconclusive: 13 µM [cytotoxic, partial curve, poor fit]
COc1ccc(NS(=O)(=O)c2cn(C)nc2C)cc1	inconclusive: 20.6 µM [rising, single point]
CSc1ccc(S(=O)(=O)Nc2ccc(N3CCOCC3)c(Cl)c2)cc1	inconclusive: 18.4 µM [cytotoxic, single point]
COc1cc(OC)cc(OC(=O)C2CCN(C3=NS(=O)(=O)c4ccccc43)CC2)c1	inactive
CCCC(=O)N1CCCC(c2cc(C(=O)Nc3ccccc3)no2)C1 (stereo not drawn)	inactive
Cc1cnc(C(=O)NCc2ccc(Cl)cc2Cl)cn1	inconclusive: 29.1 µM [cytotoxic, single point]
CCOC(=O)C1(Cc2ccccc2)CCCN(C(=O)C=C(C)C)C1 (stereo not drawn)	inconclusive: 1.46 µM [cytotoxic, full curve]
NNC(=O)c1cc(Cl)ccc1Cl	inconclusive: 29.1 µM [rising, single point]
O=Cc1ccc(OCc2cn(CC(=O)c3ccc(O)cc3)nn2)cc1	inactive
CCOc1ccc(/C=C/C(=O)Nc2ccc3[nH]c(=O)[nH]c3c2)cc1	inactive
Cc1ccc(Cn2c(=O)n(CCCCC(=O)NCCc3ccc(Cl)cc3)c(=O)c3ccccc32)cc1	inactive
CC(C)n1cc(CN2CCCC(CNS(=O)(=O)c3cccc4cccnc34)C2)cn1 (stereo not drawn)	inactive
O=C1ON=C(c2ccccc2[N+](=O)[O-])/C1=C/c1cccc([N+](=O)[O-])c1O	inconclusive: 29.1 µM [rising, single point]
Cc1cc(N2CCCC2)c(F)cc1/C=C\[N+](=O)[O-]	inconclusive: 20.6 µM [cytotoxic, single point]
Cc1[nH]c(=S)c(C#N)c(-c2ccccc2)c1C(=O)Nc1ccccc1	inconclusive: 23.1 µM [rising, single point]
O=C(C=Cc1ccccc1Cl)c1ccccc1	inactive
COc1ccc(NC(=O)CN(C)C(=O)c2ccc(-c3cccc(C(F)(F)F)c3)o2)cc1	inconclusive: 7.31 µM [cytotoxic, partial curve]
COc1ccc(Cl)cc1CC=NNC(=O)c1ccncc1	inactive
COc1cc(C(=O)NCC2CCCO2)ccc1OCc1ccccc1Cl (stereo not drawn)	inconclusive: 29.1 µM [cytotoxic, single point]
Cc1c(C(=O)Nc2ccccc2-c2ccccc2)cccc1[N+](=O)[O-]	active: 14.6 µM
Nc1ccc(C(=O)OCCc2ccccc2)cc1	inconclusive: 7.31 µM [rising, partial curve]

Some of these compounds in order of molar mass, rising.
SMILES	Potency
O=Cc1ccc(OCc2cn(CC(=O)c3ccc(O)cc3)nn2)cc1	inactive
O=C1ON=C(c2ccccc2[N+](=O)[O-])/C1=C/c1cccc([N+](=O)[O-])c1O	inconclusive: 29.1 µM [rising, single point]
Cc1ccc(C(C(=O)NC2CCCCC2)N(C(=O)Cc2c[nH]c3ccccc23)c2ccccc2C)o1 (stereo not drawn)	inconclusive: 13 µM [cytotoxic, partial curve, poor fit]

The list continues.

SMILES	Potency
CC(C)(C)NC(=O)c1cccc(NC(=O)c2ccc3c(c2)C(=O)N(C(C)(C)C)C3=O)c1	inconclusive: 20.6 µM [cytotoxic, single point]
O=C1/C(=C/c2ccccc2)NC(=S)N1C(c1ccccc1)c1ccccc1	inconclusive: 3.66 µM [cytotoxic, partial curve, poor fit]
CCOc1ccc(CCNC(=O)COC(=O)c2cccnc2Cl)cc1OCC	inconclusive: 18.4 µM [cytotoxic, single point]
Cn1c(=O)c2c(n3c4ccccc4nc13)NC(=O)CC2c1ccccc1F (stereo not drawn)	inactive
CCOC(=O)c1c(C)n2c3c(cc(C)cc13)CCC2	inactive
CC1CCc2c(sc3nnn(Cc4ccc(F)cc4)c(=O)c23)C1 (stereo not drawn)	inactive
Cc1ccccc1Cn1cc(NC(=O)c2cc(-c3ccco3)on2)cn1	inconclusive: 18.4 µM [cytotoxic, partial curve]
COc1c(C(=O)Nc2ccc3[nH]c(=O)[nH]c3c2)cc2ccccc2c1Br	inactive
Cc1csc2nc(O)c(C(=O)NCc3ccc4c(c3)OCO4)c(=O)n12	inconclusive: 25.9 µM [cytotoxic, partial curve, poor fit]
CC(=O)NCCc1ccc(S(=O)(=O)N2CCN(c3nc(-c4ccccc4)c(C)s3)CC2)cc1	inactive
Cc1ccc(S(=O)(=O)N2CCOCC2)cc1NC(=O)CSc1nc2ccccc2c(=O)n1Cc1ccccc1	active: 8.2 µM
Cc1ccc2c(ccc[n+]2CC(=O)c2ccccc2)c1	inactive
C[N+](C)(C)CCC(=O)N1C/C(=C/c2ccccc2)C(=O)/C(=C\c2ccccc2)C1	active: 10.3 µM
OC1(c2nc3ccccc3[nH]2)CCCCC1	inconclusive: 11.6 µM [rising, single point]
CCC1(c2ccc(F)cc2)NC(=O)N(CC(=O)NCc2ccccc2Cl)C1=O (stereo not drawn)	inconclusive: 14.6 µM [rising, single point]
COc1ccc(NC(=O)CSc2nnnn2C2CCCC2)cc1S(=O)(=O)N1CCOCC1	inactive
Cc1cccc2cc(CN(Cc3nnnn3Cc3ccccc3)C3CCCC3)c(=O)[nH]c12	active: 20.6 µM
Cc1onc(-c2ccccc2Cl)c1C(=O)OCC(=O)c1c(N)n(C)c(=O)n(C)c1=O	inconclusive: 16.4 µM [cytotoxic, single point]
CCCCNC(=O)CN1C(=O)NC(Cc2ccccc2)(Cc2ccccc2)C1=O	inconclusive: 23.1 µM [cytotoxic, partial curve, poor fit]
Cc1ccc(C)c(N(C)C(=O)c2cn(C)c(=O)c3ccccc23)c1	inactive
CN(C)c1ncnc2c1ncn2[C@H]1CN(CCN2CCOCC2)C[C@@H](CO)O1	inactive
Cc1cc(C(=O)COC(=O)c2ccc[nH]c2=O)c(C)n1-c1ccccc1F	inconclusive: 20.6 µM [cytotoxic, single point]
COC(=O)CSc1nnc(-c2cnccn2)n1C	inconclusive: 1.3 µM [rising, partial curve, poor fit]
CC(C)(C)NC(=O)C(OC(=O)Cn1nnc(-c2ccc(F)cc2)n1)c1ccncc1 (stereo not drawn)	inactive
CN1CCN(C(=O)c2cc3nc(-c4ccco4)cc(C(F)(F)F)n3n2)CC1	inconclusive: 25.9 µM [cytotoxic, partial curve, poor fit]

Two consecutive entries out of the list so far, for reference:
SMILES	Potency
COC(=O)CSc1nnc(-c2cnccn2)n1C	inconclusive: 1.3 µM [rising, partial curve, poor fit]
CC(C)(C)NC(=O)C(OC(=O)Cn1nnc(-c2ccc(F)cc2)n1)c1ccncc1 (stereo not drawn)	inactive

Look-ups from the results shown:
Entry of Cc1ccc2c(ccc[n+]2CC(=O)c2ccccc2)c1 under Potency: inactive
Entry of Cc1ccc(C)c(N(C)C(=O)c2cn(C)c(=O)c3ccccc23)c1 under Potency: inactive

(list continues)

SMILES	Potency
NC(=O)C1CCN(C(=O)C(=O)c2cn(CC(=O)N3CCCCCC3)c3ccccc23)CC1	inconclusive: 7.31 µM [rising, partial curve]
CC(C)(C)c1ccc(-c2cc(-c3ccccc3O)[nH]n2)cc1	inconclusive: 13 µM [cytotoxic, partial curve, poor fit]
C=CCn1c[n+](CC(=O)c2ccc(Br)s2)c2ccccc21	inactive
Cc1[nH]c2ccccc2c1/C=N/NC(=O)CNC(=O)c1ccco1	inconclusive: 11.6 µM [rising, partial curve]
CC(=O)n1cc([C@@H]2C=C(C(=O)N3CCN(Cc4ccccc4)CC3)O[C@H](OCc3ccc(CO)cc3)C2)c2ccccc21	inconclusive: 29.1 µM [cytotoxic, single point]
O=C(CNC(=O)c1ccccc1Cl)OCc1cc(=O)n2ccsc2n1	inactive
COc1ccccc1C(=O)N(Cc1ccccc1)c1ccc(C)cc1	inconclusive: 4.61 µM [cytotoxic, partial curve, poor fit]
O=C(NC1CCCCC1)C(c1ccccc1F)N(Cc1ccco1)C(=O)Cn1nnc2ccccc21 (stereo not drawn)	inactive
Cn1c(NCc2ccncc2)nc2cc(-c3ccsc3)sc2c1=O	inactive
Cc1ccc(COc2ccsc2C(=O)NN)cc1	inactive
Cc1ccccc1N=C1SCC(=O)N1Cc1ccccc1	inconclusive: 20.6 µM [cytotoxic, single point]
CCOc1ccc(OCCC(=O)N(CC(C)C)c2c(N)n(Cc3ccccc3)c(=O)[nH]c2=O)cc1	inconclusive: 29.1 µM [rising, single point]
COc1ccc(C2c3ccc4ccccc4c3Oc3ncn(CCCN(C)C)c(=N)c32)cc1 (stereo not drawn)	inconclusive: 23.1 µM [cytotoxic, single point]
Nc1c(SCCC(=O)O)ccc2c1C(=O)c1ccccc1C2=O	inconclusive: 20.6 µM [cytotoxic, partial curve, poor fit]
CC1(C)CN2C(=S)N(c3ccccc3)C(c3ccccc3)N2C1 (stereo not drawn)	inconclusive: 11.2 µM [cytotoxic, partial curve, poor fit]
Brc1csc(CN2CCc3nc(Nc4ccccc4)ncc3C2)c1	inactive
Cc1cccc(NC(=O)c2cc(S(=O)(=O)N3CCCCC3)c[nH]2)c1C	inconclusive: 16.4 µM [cytotoxic, single point]
CCc1ccc2c(c1)c1nnc(NN)nc1n2CC	inconclusive: 29.1 µM [cytotoxic, single point]
COCCn1c(C)cc(C(=O)CSc2ccc(NC(C)=O)cc2)c1C	inactive
Cc1ccc(C(=O)OC(C)C(=O)c2cc(C)c(C)cc2C)o1 (stereo not drawn)	inactive
CCN(CC)C(=O)C1=C(C)N(Cc2ccccc2)C(=O)C(CC(=O)NCC2CCCCC2)C1 (stereo not drawn)	inactive
COc1cc2c(cc1OC)C1=C(C#N)CN(C3CCCCC3)CN1CC2	active: 20.6 µM
COc1ccc(CC(=O)Nc2ccc3nc(Nc4cccc(Cl)c4)cc(C)c3c2)cc1OC	inconclusive: 6.51 µM [cytotoxic, partial curve]
